PubChem BioAssay AID1259405 – NCATS – 2018
This is an unselected part of about 50,000 reagents tested. Of all reagents, about 4,000 (8%) were called active. 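Mouse siRNA library applied to hamster cells; one well for each siRNA.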 Unmarked entries are inactive. The numbers tell different reagents against one gene apart. Reagent sequences are not shown.

Test: 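Silenced genes that increase secreted GFP made by CHO cells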 (primary screen)
System: Chinese hamster CHO-K1 ovary cells with stable secreted eGFP expression
Reagent: single siRNA against mouse genes, 0.8 pmol siRNA per well (2 µl of 400 nM stock)
Timing: 3 days
Measurement: 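Per-well intracellular GFP measured by laser scanning cytometry, plus viability from ATP luminescence, each relative to plate median of non-targeting control wells, in %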
Scale: GFP, % of control: higher = more GFP per well, higher productivity; viability (ATP), % of control: higher = more viable cells (more ATP)
Active means: 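Called active when intracellular GFP, relative to negative control, is at or above 120%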

target gene | siRNA no. | GFP, % of control | viability (ATP), % of control
Mcpt1 | 1 | 87.1 | 107
Mcpt1 | 2 | 92.2 | 51.8
Mcpt1 | 3 | 92.6 | 86.4
1700067P10Rik | 1 | 81.1 | 89.1
1700067P10Rik | 2 | 72.6 | 95
1700067P10Rik | 3 | 50.3 | 43.1
Ctc1 | 1 | 54.6 | 69.6
Ctc1 | 2 | 84.3 | 68.6
Ctc1 | 3 | 113 | 141
Ap1ar | 1 | 105 | 62.1
Ap1ar | 2 | 106 | 63
Ap1ar | 3 | 114 | 84.2
Tuba1c | 1 | 91.1 | 70.9
Tuba1c | 2 | 58.2 | 82
Gdap1l1 | 1 | 73 | 56.9
Gdap1l1 | 2 | 104 | 75.1
Gdap1l1 | 3 | 89.4 | 60
Numa1 | 1 | 39.6 | 38.9
Numa1 | 2 | 41.3 | 51.4
Numa1 | 3 | 74.3 | 62.4
Wnt9b | 1 | 42.6 | 41.7
Wnt9b | 2 | 82.4 | 111
Wnt9b | 3 | 123 (active) | 82.5
Pole4 | 1 | 85.8 | 95.9
Pole4 | 2 | 127 (active) | 95.9
Mpp1 | 1 | 55.8 | 51
Napa | 1 | 102 | 101
Napa | 2 | 75.8 | 70.9
Diras2 | 1 | 125 (active) | 97.8
Diras2 | 2 | 100 | 135
Diras2 | 3 | 71.6 | 81.3
Cd3g | 1 | 87.3 | 55
Cd3g | 2 | 68.6 | 83.4
Cd3g | 3 | 52.9 | 61.5
Wdr33 | 1 | 115 | 57.2
Wdr33 | 2 | 70.8 | 84
Wdr33 | 3 | 81.5 | 61.6
Or11g1 | 1 | 37.9 | 47.6
Or11g1 | 2 | 88.1 | 85.1
Or11g1 | 3 | 54.8 | 65.9
Cers6 | 1 | 51.7 | 67.2
Cers6 | 2 | 52 | 38.1
Cers6 | 3 | 20.9 | 37
1700029M20Rik | 1 | 48.4 | 42.8
1700029M20Rik | 2 | 83.4 | 67.1
1700029M20Rik | 3 | 54.3 | 72.4
Cdt1 | 1 | 82.9 | 41.7
Cdt1 | 2 | 42.3 | 53.3
Cdt1 | 3 | 93.8 | 114
Exog | 1 | 85.4 | 112
Exog | 2 | 120 | 129
Exog | 3 | 86.4 | 74.4
Pml | 1 | 50.2 | 70.2
Pml | 2 | 93.9 | 82.2
Pml | 3 | 36.8 | 57.5
Ier3 | 1 | 48.5 | 58.5
Ier3 | 2 | 97.1 | 81.7
Ier3 | 3 | 151 (active) | 94.4
Itpr3 | 1 | 110 | 84.7
Itpr3 | 2 | 70.2 | 63.2
Itpr3 | 3 | 20.2 | 18.6
Or4a78 | 1 | 40.8 | 74.5
Or4a78 | 2 | 54.8 | 97.5
Or4a78 | 3 | 81.2 | 129
Entpd6 | 1 | 46 | 44.5
Entpd6 | 2 | 79 | 82.9
Entpd6 | 3 | 66.9 | 47.6
Hnrnpd | 1 | 40.7 | 28
Hnrnpd | 2 | 98.7 | 82.8
Hnrnpd | 3 | 88.6 | 36.4
Mlc1 | 1 | 90.6 | 104
Mlc1 | 2 | 67.8 | 38.7
Adra2b | 1 | 70.7 | 38
Adra2b | 2 | 117 | 79.6
Adra2b | 3 | 106 | 64.4
Pak4 | 1 | 130 (active) | 73.2
Pak4 | 2 | 87.9 | 75.2
Pak4 | 3 | 83.9 | 99.7
Dazap1 | 1 | 69.3 | 98.7
Dazap1 | 2 | 73.9 | 88.9
Dazap1 | 3 | 92.2 | 97
Akirin1 | 1 | 54.7 | 68.5
Akirin1 | 2 | 70.4 | 87.4
Akirin1 | 3 | 78.6 | 112
Spag4 | 1 | 31.4 | 34.2
Spag4 | 2 | 35.8 | 43.1
Spag4 | 3 | 63.9 | 59
Vps25 | 1 | 79.6 | 69.2
Vps25 | 2 | 134 (active) | 52
Vps25 | 3 | 101 | 124
Tfe3 | 1 | 113 | 89.3
Tfe3 | 2 | 76.1 | 76.8
Tfe3 | 3 | 65.5 | 89.3
Or3a1 | 1 | 36.8 | 19.1
Or3a1 | 2 | 109 | 80.8
Or3a1 | 3 | 79.8 | 75
Enpp2 | 1 | 94 | 79.8
Enpp2 | 2 | 83.5 | 49.5
Lin9 | 1 | 73.7 | 75.5
Lin9 | 2 | 65.5 | 76.5
Fem1c | 1 | 78.3 | 80.5
Fem1c | 2 | 42.1 | 48.8
Fem1c | 3 | 93.3 | 76.9
Mturn | 1 | 71.5 | 46.2
Mturn | 2 | 83.9 | 68.4
Mturn | 3 | 104 | 92.2
Garin2 | 1 | 123 (active) | 125
Garin2 | 2 | 56.3 | 43.9
Garin2 | 3 | 141 (active) | 129

Entries listed so far whose gene name starts with V or v:
target gene | siRNA no. | GFP, % of control | viability (ATP), % of control
Vps25 | 1 | 79.6 | 69.2
Vps25 | 2 | 134 (active) | 52
Vps25 | 3 | 101 | 124
